Experimental data reported in paper PMC4366354.
These are yes or no findings as the source states them, for the method shown. In cells and extracts the contact can be indirect. Some binding calls cover weakened binding; strength is not graded here. For some of these results: Tags and fused reporters may be left off the sequences shown.

Sequences of proteins named here, by UniProt entry; tags and fusion partners are left off.
UniProt O60260: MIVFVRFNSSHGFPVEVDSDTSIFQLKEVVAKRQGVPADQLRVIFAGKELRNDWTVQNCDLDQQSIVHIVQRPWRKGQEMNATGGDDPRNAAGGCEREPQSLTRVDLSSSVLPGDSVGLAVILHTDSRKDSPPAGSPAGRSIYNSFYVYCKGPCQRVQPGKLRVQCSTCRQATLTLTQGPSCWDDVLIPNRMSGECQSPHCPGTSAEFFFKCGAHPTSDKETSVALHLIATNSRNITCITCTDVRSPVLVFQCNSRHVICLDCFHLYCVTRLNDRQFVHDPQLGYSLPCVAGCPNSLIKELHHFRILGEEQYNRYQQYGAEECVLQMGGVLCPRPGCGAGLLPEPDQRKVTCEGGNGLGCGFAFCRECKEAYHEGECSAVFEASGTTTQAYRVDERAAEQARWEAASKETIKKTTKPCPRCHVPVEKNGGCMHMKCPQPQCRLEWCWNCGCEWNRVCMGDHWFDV
UniProt Q99700: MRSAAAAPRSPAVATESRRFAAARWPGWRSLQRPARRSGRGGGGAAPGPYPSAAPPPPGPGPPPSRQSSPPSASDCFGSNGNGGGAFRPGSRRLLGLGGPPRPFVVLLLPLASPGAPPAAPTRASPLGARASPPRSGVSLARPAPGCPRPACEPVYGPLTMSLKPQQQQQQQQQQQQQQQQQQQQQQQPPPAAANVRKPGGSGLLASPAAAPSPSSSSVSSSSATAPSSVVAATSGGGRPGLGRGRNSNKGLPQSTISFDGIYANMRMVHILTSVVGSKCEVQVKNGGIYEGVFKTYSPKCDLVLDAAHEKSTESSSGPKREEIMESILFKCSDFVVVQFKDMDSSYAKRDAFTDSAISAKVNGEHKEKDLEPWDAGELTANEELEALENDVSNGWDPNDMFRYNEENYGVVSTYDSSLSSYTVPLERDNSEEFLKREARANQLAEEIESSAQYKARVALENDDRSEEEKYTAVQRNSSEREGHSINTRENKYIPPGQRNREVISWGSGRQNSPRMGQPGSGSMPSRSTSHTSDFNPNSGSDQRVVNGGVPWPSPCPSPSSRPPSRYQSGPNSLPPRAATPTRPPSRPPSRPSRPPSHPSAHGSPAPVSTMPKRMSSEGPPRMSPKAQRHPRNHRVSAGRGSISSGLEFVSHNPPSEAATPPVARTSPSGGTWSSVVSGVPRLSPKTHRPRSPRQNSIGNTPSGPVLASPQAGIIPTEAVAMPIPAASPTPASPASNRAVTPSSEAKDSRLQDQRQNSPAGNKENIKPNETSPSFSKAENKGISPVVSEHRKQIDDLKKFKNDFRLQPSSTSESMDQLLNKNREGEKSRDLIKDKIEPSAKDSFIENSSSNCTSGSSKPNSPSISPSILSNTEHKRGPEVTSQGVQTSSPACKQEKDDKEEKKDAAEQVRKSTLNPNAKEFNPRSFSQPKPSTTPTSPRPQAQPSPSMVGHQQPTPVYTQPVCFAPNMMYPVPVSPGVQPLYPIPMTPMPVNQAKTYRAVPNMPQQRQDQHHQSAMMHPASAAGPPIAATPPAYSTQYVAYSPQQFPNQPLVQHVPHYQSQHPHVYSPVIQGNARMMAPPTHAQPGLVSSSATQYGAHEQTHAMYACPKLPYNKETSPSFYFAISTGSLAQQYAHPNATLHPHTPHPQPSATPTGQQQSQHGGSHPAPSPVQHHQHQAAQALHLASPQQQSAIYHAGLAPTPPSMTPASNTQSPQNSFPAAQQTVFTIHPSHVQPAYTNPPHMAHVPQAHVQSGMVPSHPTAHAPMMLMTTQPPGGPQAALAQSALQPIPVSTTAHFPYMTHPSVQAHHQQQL

B1: endogenous FBXW8 of mouse cerebellum (protein, UniProt Q8BIA4 1-598)
chain: MDDHNLEEFRRHWQEELAQSQALRRRRRLEAGERRSPRRPEAGARGEPASGYLGLAQGLLEGAGRPPAPRPGRGGDRKDTSSRSRSPPDRDATEPEPLVDQLIRDLNELDDVPFFDVRLPYELAINIFQYLNRRELGLCAQVSKTWKVIAEDEVLWYRLCRQEGHLPHSRFSDYTCWKLILQECLAKEHTLRANWKNRKGAVSELEHVPDAVLCDVRSHDGVVIAGYTSGDVRVWDTRTWDYVAPFLESESEEEDPGMQPYVSFVRINSSLAVAAYEDGILNIWDLRTGRFPIFRFEHDARIQALALSQEKPIVATASAFDVVMLYPNEEGHWHVASEFEVQKLVDYLEIVPNTGRYPVAIATAGDLVYLLKADDSARTLHYVYGQPATCLDVSASQVAFGVKSLGWVYEGNKILVYSLEAERCLSKLGNALGDFTCVNIRDSPPNLMVSGNMDRRVRIHDLRSDKIALSLSAHQLGVSAVQMDDWKVVSGGEEGLVSVWDYRMNQKLWEVHSRHPVRYLSFNSHSLITANVPYEKVLRNSDLDNFACHRRHRGLIHAYEFAVDQLAFQSPLPVCRLPRDIMAGYSYDLALSFPHDSI
B2: endogenous ATXN2 of WT mouse cerebellum (protein, UniProt O70305 1-1285)
chain: MRSSTAAVQRPAAGDPEPRRPAGWAARRSLPRTARRGGRGGAVAYPSAGPPPRGPGAPPRGPRSPPCASDCFGSNGHGASRPGSRRLLGVCGPPRPFVVVLLALAPAATPARACPPGVRASPPRSGVSSSARPAPGCPRPACEPVYGPLTMSLKPQPQPPAPATGRKPGGGLLSSPGAAPASAAVTSASVVPAPAAPVASSSAAAGGGRPGLGRGRNSSKGLPQPTISFDGIYANVRMVHILTSVVGSKCEVQVKNGGIYEGVFKTYSPKCDLVLDAAHEKSTESSSGPKREEIMESVLFKCSDFVVVQFKDTDSSYARRDAFTDSALSAKVNGEHKEKDLEPWDAGELTASEELELENDVSNGWDPNDMFRYNEENYGVVSTYDSSLSSYTVPLERDNSEEFLKREARANQLAEEIESSAQYKARVALENDDRSEEEKYTAVQRNCSDREGHGPNTRDNKYIPPGQRNREVLSWGSGRQSSPRMGQPGPGSMPSRAASHTSDFNPNAGSDQRVVNGGVPWPSPCPSHSSRPPSRYQSGPNSLPPRAATHTRPPSRPPSRPSRPPSHPSAHGSPAPVSTMPKRMSSEGPPRMSPKAQRHPRNHRVSAGRGSMSSGLEFVSHNPPSEAAAPPVARTSPAGGTWSSVVSGVPRLSPKTHRPRSPRQSSIGNSPSGPVLASPQAGIIPAEAVSMPVPAASPTPASPASNRALTPSIEAKDSRLQDQRQNSPAGSKENVKASETSPSFSKADNKGMSPVVSEHRKQIDDLKKFKNDFRLQPSSTSESMDQLLSKNREGEKSRDLIKDKTEASAKDSFIDSSSSSSNCTSGSSKTNSPSISPSMLSNAEHKRGPEVTSQGVQTSSPACKQEKDDREEKKDTTEQVRKSTLNPNAKEFNPRSFSQPKPSTTPTSPRPQAQPSPSMVGHQQPAPVYTQPVCFAPNMMYPVPVSPGVQPLYPIPMTPMPVNQAKTYRAGKVPNMPQQRQDQHHQSTMMHPASAAGPPIVATPPAYSTQYVAYSPQQFPNQPLVQHVPHYQSQHPHVYSPVIQGNARMMAPPAHAQPGLVSSSAAQFGAHEQTHAMYACPKLPYNKETSPSFYFAISTGSLAQQYAHPNAALHPHTPHPQPSATPTGQQQSQHGGSHPAPSPVQHHQHQAAQALHLASPQQQSAIYHAGLAPTPPSMTPASNTQSPQSSFPAAQQTVFTIHPSHVQPAYTTPPHMAHVPQAHVQSGMVPSHPTAHAPMMLMTTQPPGPKAALAQSALQPIPVSTTAHFPYMTHPSVQAHHQQQL

What was measured:
FBXW8-HA (human) = molecular target: T1, FBXW8-HA (human) (UniProt Q8N3Y1); assay: co-IP; lysate of transfected HeLa cells (120 mM NaCl, 0.1% Triton X 100, 50 mM Tris-HCl pH 7.5); pulled with anti-FBXW8 antibody on Protein A-agarose, overnight at 4°C; immunoblot
T1 sequence: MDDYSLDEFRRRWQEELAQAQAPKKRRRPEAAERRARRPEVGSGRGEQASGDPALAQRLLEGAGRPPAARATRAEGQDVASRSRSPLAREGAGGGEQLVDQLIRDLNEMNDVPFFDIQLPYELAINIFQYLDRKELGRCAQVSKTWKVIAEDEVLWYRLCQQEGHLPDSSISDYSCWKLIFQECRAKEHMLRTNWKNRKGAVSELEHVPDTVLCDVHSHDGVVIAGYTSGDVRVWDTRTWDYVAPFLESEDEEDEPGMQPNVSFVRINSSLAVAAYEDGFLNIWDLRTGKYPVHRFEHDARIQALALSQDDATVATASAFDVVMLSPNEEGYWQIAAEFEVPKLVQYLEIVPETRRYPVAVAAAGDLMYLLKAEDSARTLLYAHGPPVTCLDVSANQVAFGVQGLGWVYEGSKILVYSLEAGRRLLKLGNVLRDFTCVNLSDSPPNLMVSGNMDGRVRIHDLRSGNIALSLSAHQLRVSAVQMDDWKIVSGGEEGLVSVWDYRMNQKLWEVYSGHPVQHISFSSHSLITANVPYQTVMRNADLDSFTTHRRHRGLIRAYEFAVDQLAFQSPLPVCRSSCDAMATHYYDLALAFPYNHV

[1] = molecular target: T2, endogenous ATXN2 of WT mouse cerebellum (mouse (endogenous in cerebellum)) (UniProt O70305); assay: co-IP; cerebellar lysate of WT and Atxn2-CAG42-KIN mice (NP40 buffer: 20 mM Tris-HCl pH 8.0, 137 mM NaCl, 0.1% Igepal CA-630, 2 mM EDTA); endogenous proteins; pulled with anti-ATXN2 antibody on Protein A-agarose, overnight at 4°C; immunoblot
T2 sequence: B2 chain

[2] = molecular target: T3, endogenous FBXW8 of mouse cerebellum (mouse (endogenous in cerebellum)) (UniProt Q8BIA4); assay: co-IP; cerebellar lysate of WT and Atxn2-CAG42-KIN mice (NP40 buffer: 20 mM Tris-HCl pH 8.0, 137 mM NaCl, 0.1% Igepal CA-630, 2 mM EDTA); endogenous proteins; pulled with anti-FBXW8 antibody on Protein A-agarose, overnight at 4°C; immunoblot
T3 sequence: B1 chain

| binding (FBXW8-HA (human)) | also measured | Molecule |
| --- | --- | --- |
| binds | – | GFP-Cherry-PARK2 (from UniProt O60260 1-465) |
| binds | – | endogenous wild-type ATXN2 of HeLa cells (from UniProt Q99700 1-1313) |
| – | binding [1]: binds | B1 |
| – | binding [2]: binds | B2 |
